Source: paper PMC12548433
No constants are given. Whether binding was seen depends on the method and setting. Binding seen in cells or lysates may run through a third protein. Where a sequence is shown, tags or fusion partners need not be part of it.

Target: T1, FLAG-tagged leader (L) protein of Theiler's murine encephalomyelitis virus (Theiler's murine encephalomyelitis virus) (UniProt P13899)
T1 sequence: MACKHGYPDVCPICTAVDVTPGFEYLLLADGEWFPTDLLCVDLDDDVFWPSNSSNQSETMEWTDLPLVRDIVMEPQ
Test: co-IP

B1: ribonucleic acid export 1 (RAE1) (protein, UniProt P78406 1-368)
chain: MSLFGTTSGFGTSGTSMFGSATTDNHNPMKDIEVTSSPDDSIGCLSFSPPTLPGNFLIAGSWANDVRCWEVQDSGQTIPKAQQMHTGPVLDVCWSDDGSKVFTASCDKTAKMWDLSSNQAIQIAQHDAPVKTIHWIKAPNYSCVMTGSWDKTLKFWDTRSSNPMMVLQLPERCYCADVIYPMAVVATAERGLIVYQLENQPSEFRRIESPLKHQHRCVAIFKDKQNKPTGFALGSIEGRVAIHYINPPNPAKDNFTFKCHRSNGTNTSAPQDIYAVNGIAFHPVHGTLATVGSDGRFSFWDKDARTKLKTSEQLDQPISACCFNHNGNIFAYASSYDWSKGHEFYNPQKKNYIFLRNAAEELKPRNKK
With B1 the binding was “no binding”.
